# Primary screen of a compound library

From ChEMBL document CHEMBL3988442, “University of Dundee, Small-Polar-MMV Screening Library” (2021).

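Viability assay of Plasmodium falciparum sporozoites; the read-out is not stated. The concentration is filed as 10 mM, unlikely as a test dose, so the dose is not known. Direction is inferred from retests: higher values go with lower viability. Strong results were mostly tested again. Size under these conditions: about 34,000 compounds, about 280 of them at 50% or above in at least one test.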

The filed quantity is “Percent Effect” (%). The record does not define 0% and 100%; most values in the screen are far below 50% and negative numbers occur (in some assays of this library far below -100). The compounds are a random part of those screened. Two or more numbers in one place are separate tests of the same structure; such repeats can differ widely.

SMILES,Percent Effect
CCN(Cc1ccncc1)C(=O)CCn1c(C)cc2ccccc21,0.6529
Cc1ncsc1C(=O)NCCNC(=O)Cc1cccc(F)c1,17.51
CC(=O)N1CCN(C(=O)NCc2csc(Br)c2)CC1,-12.78
CC(NC(=O)NCc1cccnc1N1CCCCC1)c1nccs1 (stereo not shown),-0.3271
N#Cc1ccc(N2CCCN(C(=O)CC3CCCO3)CC2)cc1 (stereo not shown),4.96
CS(=O)(=O)CCC(=O)Nc1cnn(-c2ccccc2Cl)c1,-1.086
CN(C)C(=O)CCS(=O)(=O)Cc1cc(Cl)c2c(c1)OCCO2,11.43 & 4.737
CSCc1noc(CN2CCCCC2CCc2ccc(O)cc2)n1 (stereo not shown),-18.19
Cl.NC[C@H]1CC[C@H](c2c(C(N)=O)sc3ccccc32)CC1,-7.353
Cc1cc(-c2cnc(N3CCNC(=O)C3)nc2-c2sccc2C)on1,7.472
Cc1nccn1CC1CCCN1S(=O)(=O)Cc1ccc(F)cc1 (stereo not shown),5.478
CCOc1nnc(CN2CCC(N(C)Cc3noc(C)n3)C2)s1 (stereo not shown),3.341
Cc1nn(C)c(C)c1CCC(=O)N1CCCOC(Cn2cccn2)C1 (stereo not shown),-37.7 & -29.87
[H][C@]12CCN(C(=O)NC)CC[C@@]1([H])S(=O)(=O)N(Cc1ccccc1)C2,5.267
CCC(OC)C(=O)N1CCC2(CC1)c1nc[nH]c1CCN2S(C)(=O)=O (stereo not shown),-20.54 & -24.9
[H][C@]12CC[C@@H](N(C)c3ccc(C)nn3)[C@@]1([H])CN(C(=O)Cc1cccs1)C2,6.182
Cc1ccc(CN(C)C(=O)CN2CCOC(Cn3cccn3)C2)o1 (stereo not shown),0
Cc1c(COC(C)C)cccc1NC(=O)N1CC[C@H](O)C1,-10.04
CNCc1ccc([C@@H]2CN(C(C)=O)C[C@H]2C(N)=O)cc1.Cl,9.064
O=C(NCCc1ccsc1)Nc1cccnc1N1CCCC1,14.43
CNc1cc2c(nn1)CCN(C(=O)C1CCCc3ccccc31)C2 (stereo not shown),-1.562
COc1cccc(F)c1CN1CCC(c2nccc(C)n2)C1 (stereo not shown),-0.19
CCn1c(=O)nc2n1C(=O)N(c1cccc(Cl)c1)C2,8.114
Fc1ccc(-c2cnc(CN3CCOC(Cn4cccn4)C3)o2)cc1 (stereo not shown),5.404
Cc1cnc(CN(C)C2CCN(Cc3nccn3C)C2)o1 (stereo not shown),-4.732
Cc1noc(C)c1CN1CCCC1c1nnc2ccccn12 (stereo not shown),-2.507
O=C(C1CCC2(CCN(CC3CCOCC3)CC2)O1)N1CCCC1.O=C(O)C(F)(F)F (stereo not shown),9.068
Cc1nnc(NC(=O)CN2CCc3nn(C(C)C)c(=O)cc3C2)s1,0.8524
CC(C)(C)c1cc(NC(=O)NCCc2nnc3n2CCC3)c(C#N)s1,-1.579
O=c1[nH][nH]cc1-c1ccnc(NCCc2ccc(F)cc2)n1,19.9
COc1ccc(C(=O)N(CCO)Cc2ccccc2)c(OC)n1,-0.502
CCOCC1CN(Cc2ccc3c(c2)OCO3)Cc2ncn(C)c21 (stereo not shown),2.954
NS(=O)(=O)CCN1CCN(c2ccccc2O)CC1,7.018
O=C(O)C(F)(F)F.O=C(O)C(F)(F)F.c1coc(CN2CCCn3c(CN4CCOCC4)nnc3C2)c1,5.719
CC(=O)N1CCCC(Cc2cnc(-c3c(C)nn(C)c3C)cn2)C1 (stereo not shown),-5.37
Cc1nc(C)n(C2CCCN(C(=O)c3cn4c(C)cccc4n3)C2)n1 (stereo not shown),-3.122
CS(=O)(=O)NCC(=O)N1CCCC1c1noc(C2CC2)n1 (stereo not shown),-9.871
Cc1ccccc1C1(C(=O)NCCN2CCC(C)CC2)CCOCC1,12.73
O=C(c1cccs1)N1CCc2c(nc(N3CCCCC3)[nH]c2=O)C1,8.898
Cc1ccccc1C(C)NC(=O)Cc1c(C)nc2cc(=O)[nH]n2c1C (stereo not shown),-6.77
Cc1cccc(CN2C(=O)CCC23CCNCC3)n1.O=C(O)C(F)(F)F.O=C(O)C(F)(F)F,-2.166
O=C(CC1CC1)N1C[C@@H](O)[C@H](N2CCN(c3ccccc3)CC2)C1,0.06416
CCC(O)CN1CCN(C(=O)c2cnn(-c3ccccc3F)c2)CC1 (stereo not shown),-28.43
O=C(C1CC(=O)N(C2CC2)C1)N1CCN(CCn2cccc2)CC1 (stereo not shown),-16.69
CCCn1cc(C(=O)N2CCCC(Cc3nccs3)C2)cn1 (stereo not shown),3.302
COC1COC2(CCN(S(=O)(=O)c3ccc(F)cc3)CC2)C1 (stereo not shown),4.003
Cc1noc(C(C)N2CCN(Cc3cccc(C#N)c3)CC2)n1 (stereo not shown),9.904
[H][C@@]12CN(C)CCO[C@]1([H])CN(Cc1nc(C)cs1)C2,3.663
CC(=O)c1cccc(NC(=O)N2CCCCC2CN2CCCC2=O)c1 (stereo not shown),-7.008
CCOCC1CN(C(=O)c2ccnnc2)Cc2cnn(CC)c21.O=C(O)C(F)(F)F (stereo not shown),-9.631
Clc1ccc(OCCCN2CCOC(Cn3cncn3)C2)cc1 (stereo not shown),18.25
COCCN(C)CCN1CC2(CCN(C3CCCOC3)CC2)OC1=O (stereo not shown),5.016
Oc1cccc(CNCc2ccc(-n3cncn3)nc2)c1,-7.699
Cc1nc(CNCc2c(C)nn(C)c2N2CCOCC2)cs1,11.05
CN(C)CCOCc1nnc2n1CCN(Cc1ccoc1)CC2.O=C(O)C(F)(F)F.O=C(O)C(F)(F)F,15.85
CC(C)NC(=O)N1CC(=O)c2sc(Nc3ccc(C#N)cc3)nc2C1,16.68
NS(=O)(=O)CCNC(=O)c1ccc(OCc2ccccc2)nc1,-10.21
O=C(O)C(F)(F)F.[H][C@@]12CCN(C(=O)c3ccccc3)[C@@]1([H])CC(=O)N2CCN1CCOCC1,1.777
O=C(c1cc(F)cc2[nH]cnc12)N1CCCCC1Cn1cccn1 (stereo not shown),-6.91
CC(Nc1ccc(C#N)cc1F)c1cccc(S(N)(=O)=O)c1 (stereo not shown),-13.48
Cn1cc(C(=O)N2CCCC(n3cncn3)C2)ccc1=O (stereo not shown),-1.338
C[C@]1(O)CCN(Cc2cncs2)C[C@@H]1Oc1cccc(F)c1,-12.25
O=C(Nc1cnn(CCN2CCOCC2)c1)c1ccccc1O,1.649
CCCn1cc(S(=O)(=O)N[C@H]2CN(CCO)C[C@@H]2C2CC2)cn1,-7.368
O=C(c1cc[nH]n1)N1CCC(Nc2cccnn2)CC1,-3.237
Cn1ncc2c1NC(=O)CC2c1ccc(Cl)cc1Cl (stereo not shown),-2.142
Cc1ccc(C2(CN3CCN(Cc4cn(C)nc4C)CC3)CC2)cc1.Cl,13.3
Cc1nc(-c2ccsc2)ccc1C(=O)NCCC1CCCO1 (stereo not shown),-0.3298
CCCc1nc(CN2CCN(CC(O)c3ccccc3)CC2)no1 (stereo not shown),-24.09 & -24.64 & -18.14
COc1ccc(-c2nc(CN3CCOCS3(=O)=O)c(C)o2)cc1,6.223
COCCN(CCOC)C(=O)Nc1cc(C(F)(F)F)c[nH]c1=O,-5.296
CNC(=O)C1(C)CCCN(c2cnccn2)C1 (stereo not shown),3.771
Cc1ccccc1CC(=O)N(C)CC1(O)CCCN(c2ccccn2)C1 (stereo not shown),-34.29
Cc1ccn(CCC(=O)N2CCCC2c2nnc(-c3scnc3C)o2)n1 (stereo not shown),-11.75
Cc1cnn(C(C)C2CC2)c1NC(=O)c1ccc(Cn2cnnn2)cc1 (stereo not shown),-7.828
CC(C)N(C)S(=O)(=O)c1ccc2c(c1)CCN(C(=O)c1cnccn1)C2,-1.97
Cc1ncsc1C(=O)N1CC(C)Sc2ccccc21 (stereo not shown),6.563
CCOC(=O)N1CCN(c2nc(NCCCO)c3ccccc3n2)CC1.Cl,-3.289
O=C(O)C(F)(F)F.[H][C@@]12CCN(Cc3ccc(C)o3)[C@@]1([H])CCC(=O)N2,4.991
Cc1ccc(S(=O)(=O)NCCNC(=O)c2ccoc2)cc1F,13.73
O=C1NCCCCC1Sc1ccc(F)cc1F (stereo not shown),2.106
Cn1c(C(=O)NC(Cc2ccsc2)c2cccnc2)cc(=O)n(C)c1=O (stereo not shown),-8.679
Cc1cc(F)c(S(=O)(=O)Nc2ccn(CCCC#N)n2)cc1F,-18.26
CC1c2ncc(Cn3cccn3)n2CCN1S(=O)(=O)C1CC1 (stereo not shown),7.257

Once more, the final 5:

* Cc1ccc(S(=O)(=O)NCCNC(=O)c2ccoc2)cc1F | 13.73%
* O=C1NCCCCC1Sc1ccc(F)cc1F (stereo not shown) | 2.106%
* Cn1c(C(=O)NC(Cc2ccsc2)c2cccnc2)cc(=O)n(C)c1=O (stereo not shown) | -8.679%
* Cc1cc(F)c(S(=O)(=O)Nc2ccn(CCCC#N)n2)cc1F | -18.26%
* CC1c2ncc(Cn3cccn3)n2CCN1S(=O)(=O)C1CC1 (stereo not shown) | 7.257%